Measured values from patent EP0438519B1, “THERAPEUTIC PEPTIDES” (The Administrators of The Tulane Educational Fund, priority 1988, dated 1998).
At least one peptide structure holds a part that was inferred or is arguable (an end, a ring closure or a residue).

Legend:
[1] = system: 3T3 fibroblast bombesin receptors; experiment: In vitro inhibition of [125I]GRP binding to 3T3 fibroblast bombesin receptors; set-up: species or system murine; details: result in words
[2] = system: Swiss 3T3 cells; experiment: Bombesin-stimulated [3H]thymidine uptake by cultured 3T3 cells; type: cell-based, murine; details: result in words

Row | SMILES | 3T3 GRP receptor binding [1] | thymidine uptake [2]
1 | CC(C)C[C@@H](CN[C@@H](CC(C)C)C(N)=O)NC(=O)[C@H](Cc1c[nH]cn1)NC(=O)CNC(=O)[C@@H](NC(=O)[C@H](C)NC(=O)[C@H](Cc1c[nH]c2ccccc12)NC(=O)[C@H](CCC(N)=O)NC(=O)[C@H](N)Cc1ccccc1)C(C)C [BIM-26113, D-Phe^1, Leu^8ψ[CH2NH]Leu^9] | active | active
2 | CC(C)C[C@@H](CN[C@@H](CC(C)C)C(N)=O)NC(=O)[C@H](Cc1c[nH]cn1)NC(=O)CNC(=O)[C@@H](NC(=O)[C@H](C)NC(=O)[C@H](Cc1c[nH]c2ccccc12)NC(=O)[C@H](CCC(N)=O)NC(=O)[C@H](N)Cc1ccc2ccccc2c1)C(C)C [BIM-26114, D-Nal^1, Leu^8ψ[CH2NH]Leu^9] | active | active
